Source: PubChem BioAssay AID1159578 (Peter MacCallum Cancer Centre, 2015)
Screen: 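Knock-downs that alter how fast lymphatic endothelial cells migrate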 (primary screen). Cells: human lymphatic endothelial cells. Reagents: siRNA pool against human genes, 40 nM. Timing: 48 h after transfection. Detection: 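Cells stained with dye and imaged after a scratch; covered wound area and nuclei counted, duplicates averaged, migration set against mock wells and turned into a robust z-score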. Reading the numbers: migration robust z-score: higher = faster migration into the scratch; migration relative to mock: higher = more scratch area covered than mock; nuclei per well: higher = more cells in the well. Hit rule: 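Pools averaging fewer than 3300 nuclei are never called; remaining pools count as changed when migration robust z lies outside -2 to 2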. Meaning of the calls: active = migration changed; inactive = no migration change, or too few cells.
This is a random part of about 18,000 deposited reagents. About 1,030 of all reagents (5.7%) count as active. 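Inactive calls also include pools with fewer than 3300 nuclei, whose migration was not assessed.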 Raw values are not corrected between plates. Unmarked entries are inactive. Reagents against one gene are numbered here.

The first 2 records, ahead of the listing:
Target gene | pool no. | migration robust z-score | migration class with cell-count check | migration relative to mock | nuclei per well, duplicate mean
C8A | 1 | -0.59 | migration z between -2 and 2; enough cells | 0.72 | 4216
DEFB121 | 1 | 1.66 | migration z between -2 and 2; enough cells | 1.31 | 6090

Results, from the first entry:
Target gene | pool no. | migration robust z-score | migration class with cell-count check | migration relative to mock | nuclei per well, duplicate mean
C8A | 1 | -0.59 | migration z between -2 and 2; enough cells | 0.72 | 4216
DEFB121 | 1 | 1.66 | migration z between -2 and 2; enough cells | 1.31 | 6090
CT45A3 | 1 | -0.18 | migration z between -2 and 2; enough cells | 0.77 | 4226
CT45A3 | 2 | 0.92 | migration z between -2 and 2; enough cells | 1.12 | 5476
GHSR | 1 | -1.48 | migration z between -2 and 2; enough cells | 0.52 | 4267
UBE2N | 1 | -0.52 | migration z between -2 and 2; enough cells | 0.7 | 5117
DEXI | 1 | -1.26 | migration z between -2 and 2; enough cells | 0.56 | 5861
REG1B | 1 | 1.38 | migration z between -2 and 2; enough cells | 1.24 | 5386
DNAJB5 | 1 | -0.46 | migration z between -2 and 2; enough cells | 0.77 | 5237
IL22RA1 | 1 | 0.42 | migration z between -2 and 2; enough cells | 0.88 | 3618
OSBPL8 | 1 | 0.58 | migration z between -2 and 2; enough cells | 1.04 | 5985
XG | 1 | -0.42 | migration z between -2 and 2; enough cells | 0.78 | 4916
MED1 | 1 | 0.18 | migration z between -2 and 2; enough cells | 0.84 | 6210
PLEKHM3 | 1 | 0.1 | migration z between -2 and 2; enough cells | 0.92 | 5649
GALNT17 | 1 | 0.44 | migration z between -2 and 2; enough cells | 0.89 | 6190
HTR3A | 1 | -1.06 | migration z between -2 and 2; enough cells | 0.6 | 4111
POLR1F | 1 | 0.42 | migration z between -2 and 2; enough cells | 1 | 6221
GRTP1 | 1 | 1.18 | migration z between -2 and 2; enough cells | 1.19 | 5908
MET | 1 | -0.39 | migration z between -2 and 2; enough cells | 0.73 | 6326
NOMO3 | 1 | 0.65 | migration z between -2 and 2; enough cells | 1.05 | 6479
RINT1 | 1 | 0.84 | migration z between -2 and 2; enough cells | 1.1 | 5381
MAX | 1 | 1.01 | migration z between -2 and 2; enough cells | 1.15 | 5828
ZIC1 | 1 | -1.3 | migration z between -2 and 2; enough cells | 0.55 | 6394
ALAS2 | 1 | -2.77 (active) | migration z below -2; enough cells | 0.27 | 4503
INTS4 | 1 | -0.38 | migration z between -2 and 2; enough cells | 0.79 | 5504
FOXQ1 | 1 | -1.45 | migration z between -2 and 2; enough cells | 0.51 | 5618
RAVER1 | 1 | 1.29 | migration z between -2 and 2; enough cells | 1.22 | 5016
UGGT1 | 1 | 0.62 | migration z between -2 and 2; enough cells | 0.92 | 5384
FAM47A | 1 | 0.9 | migration z between -2 and 2; enough cells | 1.12 | 6244
APOL6 | 1 | 0.42 | migration z between -2 and 2; enough cells | 1 | 3886
ABLIM1 | 1 | -2.46 (active) | migration z below -2; enough cells | 0.25 | 4560
GAL3ST1 | 1 | -0.37 | migration z between -2 and 2; enough cells | 0.79 | 7224
TES | 1 | -2.45 (active) | migration z below -2; enough cells | 0.24 | 4128
ATG4A | 1 | 1.27 | migration z between -2 and 2; enough cells | 1.05 | 5360
ZNF324B | 1 | 1.3 | migration z between -2 and 2; enough cells | 1.22 | 5445
ALPK2 | 1 | -0.31 | migration z between -2 and 2; enough cells | 0.74 | 5624
METTL23 | 1 | -1.04 | migration z between -2 and 2; enough cells | 0.62 | 5832
DMD | 1 | -1.08 | migration z between -2 and 2; enough cells | 0.6 | 4674
CDH9 | 1 | -0.8 | migration z between -2 and 2; enough cells | 0.65 | 4764
